Our source for the binding values is paper PMC6603209.

Where a chain is given by its changes, count along the chain named. These are yes or no findings as the source states them, for the method shown. Binding calls can cover weak binding; strength is not graded here. For some assays here: Tags and fused reporters may be left off the sequences shown.

Common to all, as to test: two-hybrid; bacterial adenylate cyclase two-hybrid (BACTH) in E. coli BTH101; PII or variants fused to T18, candidates fused to T25; X-Gal and MacConkey reporter plates, 3–4 days at 25°C
The target in test [1] is T1, PII(R9L)-T18 fusion (Synechocystis sp. PCC 6803) (UniProt Q55247).
T1 sequence: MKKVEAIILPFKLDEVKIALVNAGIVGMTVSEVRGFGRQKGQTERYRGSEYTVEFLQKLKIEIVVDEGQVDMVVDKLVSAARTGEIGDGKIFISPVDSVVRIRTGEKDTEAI

Test [2] has as its target T2, PII(S49D)-T18 fusion (Synechocystis sp. PCC 6803) (UniProt Q55247).
T2 sequence: T1 sequence with L9R, S49D

The target in test [3] is PII(I86N)-T18 fusion (Synechocystis sp. PCC 6803) (UniProt Q55247).

Consider “C-terminal T25 fusion of UrtE (Synechocystis sp. PCC 6803)”, for which the binding result in test [1] and in test [2] was “binds” in each case.
With “C-terminal tagged PipX (T25 fusion) (Synechocystis sp. PCC 6803)”, the binding entry in test [1] and in test [2] was “binds” in each case.
With “NrtD with N-terminal T25 fusion (from UniProt P73449)”, the binding entry is “no binding” in test [1], “binds weakly” in test [2] and “binds weakly” in test [3].
Take “UrtD with C-terminal T25 fusion (Synechocystis sp. PCC 6803)”: the binding result in test [1] and in test [2] was “no binding” each time.
“UrtD with N-terminal T25 fusion (Synechocystis sp. PCC 6803)”: the binding result in test [1] and in test [2] was “no binding” in each case.
